Test results published in publication PMC5996148.
Some of the results follow. For some assays here: The source does not settle which construct or isoform was used.

Experiments:
Test in all cases: protein microarray (ProtoArray v5.0), streptavidin-Alexa Fluor 647
Settings in all cases: 3'-biotin; 20 mM Tris (pH 7.5), 5 mM MgCl2, 100 mM KCl, 0.1% Tween-20, A/T-rich and random oligonucleotide blockers; temperature not stated; high values mean tight binding
[1] = tested on: DNAJC5 (human)
[2] = tested on: DNAJC5B (human)
[3] = tested on: DNAJC5G (human)
[4] = tested on: DNAJC7 (human)
[5] = tested on: DNAL1 (human)
[6] = molecular target: T1, DNAL4 (UniProt O96015)
T1 sequence: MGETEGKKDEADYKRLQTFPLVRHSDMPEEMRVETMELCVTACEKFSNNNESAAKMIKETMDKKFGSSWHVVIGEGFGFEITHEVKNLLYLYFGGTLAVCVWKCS

[7] = tested on: DOK3 (human)
[8] = tested on: DOLPP1 (human)
[9] = tested on: DPCR1 (human)
[10] = tested on: DPM2 (human)
[11] = tested on: DPP3 (human)
[12] = tested on: DSCR1L1 (human)
[13] = tested on: DSCR4 (human)
[14] = tested on: DSN1 (human)
[15] = tested on: DSTN (human)
[16] = tested on: DTNB (human)
[17] = tested on: DTNBP1 (human)
[18] = tested on: DTYMK (human)
[19] = tested on: DULLARD (human)
[20] = molecular target: T2, DUS1L (UniProt Q6P1R4)
T2 sequence: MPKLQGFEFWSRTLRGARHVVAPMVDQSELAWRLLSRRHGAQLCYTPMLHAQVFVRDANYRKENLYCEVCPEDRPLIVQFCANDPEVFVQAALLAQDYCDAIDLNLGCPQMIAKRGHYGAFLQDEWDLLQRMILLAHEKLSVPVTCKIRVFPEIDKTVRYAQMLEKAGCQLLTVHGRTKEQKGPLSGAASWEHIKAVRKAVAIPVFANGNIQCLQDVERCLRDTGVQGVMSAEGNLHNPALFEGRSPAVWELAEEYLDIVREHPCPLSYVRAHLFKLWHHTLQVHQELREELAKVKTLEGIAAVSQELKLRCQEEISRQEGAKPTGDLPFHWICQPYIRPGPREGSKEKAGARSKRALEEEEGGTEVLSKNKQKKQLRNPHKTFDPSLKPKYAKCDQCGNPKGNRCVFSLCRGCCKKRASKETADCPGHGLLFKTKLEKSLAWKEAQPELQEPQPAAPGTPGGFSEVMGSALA

## GGGAGGCTGAGGCAGG [G4-1 biotinylated (PQS2)]
[1]
  binding signal: -0.288 z-score
[2]
  binding signal: -0.305 z-score
[3]
  binding signal: -0.343 z-score
[4]
  binding signal: -0.292 z-score
[5]
  binding signal: -0.333 z-score
[6]
  binding signal: -0.329 z-score
[7]
  binding signal: -0.257 z-score
[8]
  binding signal: -0.307 z-score
[9]
  binding signal: -0.327 z-score
[10]
  binding signal: -0.292 z-score
[11]
  binding signal: -0.36 z-score
[12]
  binding signal: -0.252 z-score
[13]
  binding signal: -0.339 z-score
[14]
  binding signal: -0.32 z-score
[15]
  binding signal: -0.319 z-score
[16]
  binding signal: -0.35 z-score
[17]
  binding signal: -0.342 z-score
[18]
  binding signal: -0.336 z-score
[19]
  binding signal: -0.323 z-score
[20]
  binding signal: 3.49 z-score
